Values from PubChem BioAssay AID720505 (Drosophila RNAi Screening Center, 2013).
Test: 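Genes needed for store-operated calcium entry in fly cells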 (primary screen). Cells: Drosophila S2R+ cells. Reagents: long dsRNA against Drosophila genes. Treatment: thapsigargin (2 µM) in calcium-free buffer to empty internal stores, then 2 mM calcium added back. Read-out: 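Fluo-4 signal in 384-well plates read on a FLIPR after thapsigargin (2 µM, calcium-free) store depletion and 2 mM calcium add-back; unnormalised mean endpoint per well; screen run twice, selected wells retested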. Direction: calcium signal: higher = more calcium entry after store depletion. Active means: 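About 1500 genes called as lowering calcium entry, by varying amounts, judged against per-plate control wells with STIM1 as positive and Rho1 as negative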. Calls: active = called as lowering calcium entry; inactive = not called.
The deposit covers about 20,000 reagents; this is a random part of those that have a named target and a result. In the full data, about 2,100 (10%) got an active call. 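Raw plate signals without normalisation; calls rest on control-based scores that were not deposited; replicate 2 separates called from uncalled poorly.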 The numbers tell different reagents against one gene apart. No sequences are given here. Not stated in the record: the amount of reagent, the time to read-out.

CG7512: calcium signal, replicate 1 = 96.9; calcium signal, replicate 2 = 95.5; activity call = inactive
CG15269: calcium signal, replicate 1 = 113; calcium signal, replicate 2 = 141; activity call = inactive
Cpr65Ay (Cuticular protein 65Ay): activity call = inactive
Cyp4ac2 (Cytochrome P450 4ac2): calcium signal, replicate 1 = 194; calcium signal, replicate 2 = 79.3; activity call = inactive
CG4020: calcium signal, replicate 1 = 246; calcium signal, replicate 2 = 146; activity call = inactive
Ttc19 (Tetratricopeptide repeat domain 19): calcium signal, replicate 1 = 173; calcium signal, replicate 2 = 139; activity call = inactive
CG10587: calcium signal, replicate 1 = 76.6; calcium signal, replicate 2 = 111; activity call = inactive
CG10280: calcium signal, replicate 1 = 70.3; calcium signal, replicate 2 = 174; activity call = active
Pfdn5 (Prefoldin 5): calcium signal, replicate 1 = 243; calcium signal, replicate 2 = 231; activity call = inactive

The list goes on; the last 2 above are carried over.
CG10280: calcium signal, replicate 1 = 70.3; calcium signal, replicate 2 = 174; activity call = active
Pfdn5 (Prefoldin 5): calcium signal, replicate 1 = 243; calcium signal, replicate 2 = 231; activity call = inactive
Ugt37A3 (UDP-glycosyltransferase family 37 member A3): calcium signal, replicate 1 = 183; calcium signal, replicate 2 = 90.2; activity call = inactive
ey (eyeless): calcium signal, replicate 1 = 94.9; calcium signal, replicate 2 = 154; activity call = inactive
CG5641: calcium signal, replicate 1 = 115; calcium signal, replicate 2 = 138; activity call = inactive
CG15728 #1: calcium signal, replicate 1 = 98.2; calcium signal, replicate 2 = 102; activity call = inactive
CG15728 #2: calcium signal, replicate 1 = 74; calcium signal, replicate 2 = 89.4; activity call = inactive
Kcmf1 (Potassium channel modulatory factor 1): calcium signal, replicate 1 = 99.4; calcium signal, replicate 2 = 133; activity call = inactive
mRpL51 (mitochondrial ribosomal protein L51): calcium signal, replicate 1 = 78.8; calcium signal, replicate 2 = 88.2; activity call = inactive
Atg7 (Autophagy-related 7) #1: calcium signal, replicate 1 = 83.2; calcium signal, replicate 2 = 113; activity call = inactive
Atg7 (Autophagy-related 7) #2: calcium signal, replicate 1 = 168; calcium signal, replicate 2 = 191; activity call = inactive
Tnks (tankyrase): calcium signal, replicate 1 = 71.2; calcium signal, replicate 2 = 87.2; activity call = active
